Laboratory results as given in publication PMC5223361.
Results are given in words; binding and its absence hold for the method and conditions named. In cells and extracts the contact can be indirect. Some results given as binding are weak or reduced against the parent protein; the word gives no strength.

By UniProt entry, the sequences of proteins in these tests, tags left out.
UniProt Q969H0: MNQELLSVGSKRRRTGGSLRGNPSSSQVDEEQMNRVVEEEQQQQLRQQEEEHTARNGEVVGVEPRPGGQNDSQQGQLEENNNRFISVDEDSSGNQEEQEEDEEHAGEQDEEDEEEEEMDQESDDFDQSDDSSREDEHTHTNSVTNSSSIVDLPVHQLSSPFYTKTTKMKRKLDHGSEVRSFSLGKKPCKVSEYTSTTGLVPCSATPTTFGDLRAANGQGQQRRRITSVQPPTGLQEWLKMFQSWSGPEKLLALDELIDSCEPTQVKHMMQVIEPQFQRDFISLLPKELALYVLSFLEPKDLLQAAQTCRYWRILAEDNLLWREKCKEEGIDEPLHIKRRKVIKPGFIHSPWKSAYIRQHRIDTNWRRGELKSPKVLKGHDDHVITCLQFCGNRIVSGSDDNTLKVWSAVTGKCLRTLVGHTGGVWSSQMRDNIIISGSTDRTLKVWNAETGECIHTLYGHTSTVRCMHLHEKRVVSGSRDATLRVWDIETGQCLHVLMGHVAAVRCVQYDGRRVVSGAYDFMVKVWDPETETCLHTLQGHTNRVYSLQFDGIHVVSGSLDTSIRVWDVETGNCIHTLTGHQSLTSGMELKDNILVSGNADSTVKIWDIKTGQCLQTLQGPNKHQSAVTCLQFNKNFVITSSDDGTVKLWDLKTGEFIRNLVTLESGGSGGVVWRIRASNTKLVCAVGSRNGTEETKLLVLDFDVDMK
UniProt P40763: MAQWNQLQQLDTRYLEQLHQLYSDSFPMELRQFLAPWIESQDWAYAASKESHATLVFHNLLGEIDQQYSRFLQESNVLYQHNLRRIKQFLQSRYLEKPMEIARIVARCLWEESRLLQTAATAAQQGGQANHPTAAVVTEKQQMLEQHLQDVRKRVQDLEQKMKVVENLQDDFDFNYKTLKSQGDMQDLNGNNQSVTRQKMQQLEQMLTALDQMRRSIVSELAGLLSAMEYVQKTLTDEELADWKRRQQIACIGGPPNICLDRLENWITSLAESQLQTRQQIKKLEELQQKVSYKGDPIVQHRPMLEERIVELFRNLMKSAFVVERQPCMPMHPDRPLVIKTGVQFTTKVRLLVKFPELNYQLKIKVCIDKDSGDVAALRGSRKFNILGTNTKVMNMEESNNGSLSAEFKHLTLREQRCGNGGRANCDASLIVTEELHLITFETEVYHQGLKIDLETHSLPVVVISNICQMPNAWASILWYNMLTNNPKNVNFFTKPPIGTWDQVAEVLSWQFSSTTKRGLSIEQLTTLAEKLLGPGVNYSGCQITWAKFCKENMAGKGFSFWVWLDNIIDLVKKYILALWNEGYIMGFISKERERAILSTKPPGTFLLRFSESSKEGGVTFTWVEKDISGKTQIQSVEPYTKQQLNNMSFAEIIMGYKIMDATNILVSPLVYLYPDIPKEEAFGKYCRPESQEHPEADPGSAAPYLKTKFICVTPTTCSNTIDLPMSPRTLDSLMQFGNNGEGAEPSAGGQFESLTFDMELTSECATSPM

Experiments:
Myc-Fbw7 (human) = Myc-Fbw7 (human) (UniProt Q969H0); assay: co-IP; HEK293T cells co-transfected with Myc-Fbw7 and Flag-Stat3; RIPA lysates precipitated with anti-Myc or anti-Flag antibody on protein A/G beads overnight; western blot
Flag-Stat3 (human) = Flag-Stat3 (human) (UniProt P40763); assay: as above
[1] = biological target: endogenous Stat3 (HEK293T cells) (human (endogenous in HEK293T)) (UniProt P40763); assay: co-IP; endogenous proteins; HEK293T lysates precipitated with anti-Fbw7, anti-Stat3 or anti-pStat3^Tyr705 antibody; IgG as control; western blot (Additional file 5)
[2] = biological target: endogenous pStat3^Tyr705 (HEK293T cells) (human (endogenous in HEK293T)) (UniProt P40763); assay: as above
[3] = biological target: endogenous Stat3 (SU-DHL-2 cells) (human (endogenous in SU-DHL-2)) (UniProt P40763); assay: co-IP; endogenous proteins; SU-DHL-2 RIPA lysates precipitated with anti-Fbw7, anti-Stat3 or anti-pStat3^Tyr705 antibody on protein A/G beads overnight; IgG as control; western blot
[4] = biological target: endogenous pStat3^Tyr705 (SU-DHL-2 cells) (human (endogenous in SU-DHL-2)) (UniProt P40763); assay: as above
[5] = biological target: endogenous Fbw7 (HEK293T cells) (human (endogenous in HEK293T)) (UniProt Q969H0); assay: co-IP; endogenous proteins; HEK293T lysates precipitated with anti-Fbw7, anti-Stat3 or anti-pStat3^Tyr705 antibody; IgG as control; western blot (Additional file 5)
[6] = biological target: endogenous Fbw7 (SU-DHL-2 cells) (human (endogenous in SU-DHL-2)) (UniProt Q969H0); assay: co-IP; endogenous proteins; SU-DHL-2 RIPA lysates precipitated with anti-Fbw7, anti-Stat3 or anti-pStat3^Tyr705 antibody on protein A/G beads overnight; IgG as control; western blot

**Q.** Flag-Stat3 (from UniProt P40763 1-770) was tested. Which binding (Myc-Fbw7 (human)) did it give?
**A.** Its binding is “binds”.

**Q.** Which binding (Flag-Stat3 (human)) does the source give for Myc-Fbw7 (from UniProt Q969H0 1-707) here?
**A.** Its binding is “binds”.

**Q.** How did the binding [1] turn out when “endogenous Fbw7 (HEK293T cells) (from UniProt Q969H0 1-707)” was run?
**A.** The binding was “binds”.

**Q.** What about the binding [2] of the same substance?
**A.** The binding was “binds”.

**Q.** For “endogenous Fbw7 (SU-DHL-2 cells) (from UniProt Q969H0 1-707)”, which binding [3] is on record?
**A.** The binding was “binds”.

**Q.** And the binding [4]?
**A.** Its binding is “binds”.

**Q.** With “endogenous Stat3 (HEK293T cells) (from UniProt P40763 1-770)” as the substance, how does the binding [5] read?
**A.** The binding was “binds”.

**Q.** For “endogenous Stat3 (SU-DHL-2 cells) (from UniProt P40763 1-770)”, which binding [6] is on record?
**A.** Its binding is “binds”.

**Q.** How did the binding [5] turn out when “endogenous pStat3^Tyr705 (HEK293T cells) (from UniProt P40763 1-770)” was run?
**A.** Its binding is “binds”.

**Q.** Which binding [6] does the source give for “endogenous pStat3^Tyr705 (SU-DHL-2 cells) (from UniProt P40763 1-770)” here?
**A.** The binding was “binds”.
